Source: US20060241019A1 (priority 2003, published 2006)

Test: peptide synthesis
Settings: for conjugation yield: conjugation step

Substance | conjugation yield | step yield (late stage modification step)
(Lys B29)-MPA(AEES)2-Insulin | 25.9% | 
(Lys B29)-MPA(OA)-Insulin |  | 31%
(Phe B1)-MPA(AEES)2-Insulin | 43.7% | 
